Measurements: PubChem BioAssay AID540276 (National Center for Advancing Translational Sciences (NCATS), 2011)
About 5,400 (1.8%) of roughly 300,000 compounds were called active. Inconclusive means that the source gave no clear call. Such entries were picked first, then a sample of the others. Calls come from the whole dose curve; tested in HEK293 cells. Where the call is inconclusive, the potency comes from a doubtful curve fit.

experiment: qHTS for inhibitors of binding or entry into cells for Marburg Virus; conditions: Marburg virus pseudotyped entry inhibition, cell reporter; activity change, negative = inhibition: at 37.8 µM (top of the series) unless noted
% is set by controls: 0 for no effect and ±100 for the full control effect; potency is the fitted concentration of half-maximal effect.

Structure (SMILES)	activity change, negative = inhibition	Potency
Cc1ccc2nc(-c3cccnc3)oc2c1	inactive: -29%	
Cc1c(CN(C)C)c2c(n1Cc1ccccc1)C(=O)c1ccccc1-2		inconclusive: 35.5 µM [inhibitor, single point]
Cc1c(N=Cc2nc3ccccc3n2C)c(=O)n(-c2ccccc2)n1C	inactive: 25.7%	
COc1cc(OC)cc(C(=O)Nc2c(C(=O)Nc3ccc(F)cc3)oc3ccccc23)c1		inconclusive: 7.08 µM [inhibitor, full curve, poor fit]
CN1c2ccccc2Oc2nnc(N3CCN(Cc4ccccc4)CC3)cc21		inconclusive: 14.1 µM [inhibitor, single point]
Cc1ccc(NC(=O)C2(S(=O)(=O)c3ccc(Cl)cc3)CC2)c(Br)c1		inconclusive: 11.2 µM [inhibitor, partial curve, poor fit]
CCN(CC)CCNC(=O)c1ccc2c(=O)n(C3CCCC3)c(=S)[nH]c2c1		active: 8.2 µM
CN(c1ccccc1)S(=O)(=O)c1cccc(NC(=O)Cn2cnc3c2c(=O)n(C)c(=O)n3C)c1		inconclusive: 35.5 µM [inhibitor, single point]
CSc1ccc(CCNC(=O)C(C)n2c(C)c3cnn(-c4ccccc4)c(=O)c3c2C)cc1 (configuration not stated)	inactive: 3.64% [at 46.1 µM]	
CC(=O)Nc1ccc(N2CCN(c3ccc(C(F)(F)F)cn3)CC2)nc1		inconclusive: 11.2 µM [activator, partial curve, poor fit]
COc1ccc(Oc2nc(OC)cc(OC)n2)cc1		inconclusive: 22.4 µM [inhibitor, single point]
O=C(O)COc1ccc(/C=C/C(=O)c2ccc3ccccc3c2)cc1	inactive: 22.2% [at 46.1 µM]	
COC(=O)c1ccccc1NC(=O)N1c2ccccc2Sc2ccccc21		inconclusive: 13 µM [inhibitor, partial curve]
N#C/C(=C\c1cn[nH]c1-c1ccccc1Br)C(=O)O		inconclusive: 2.24 µM [activator, full curve]
O=C(NCc1ccncc1)C1CCCCC1	inactive: 23.7%	
COC(=O)C1=C(C)N(C)C(C)=C(C(=O)OC)C1c1ccc(F)c(Br)c1		inconclusive: 7.08 µM [inhibitor, full curve, poor fit]
CCOC(=O)C1=C(C)Nc2ncnn2C1/C=C/c1ccccc1 (configuration not stated)		inconclusive: 4.61 µM [inhibitor, full curve, poor fit]
CCOc1ccc(OCC)c(S(=O)(=O)NC2CC(C)(C)NC(C)(C)C2)c1		inconclusive: 17.8 µM [inhibitor, single point]
Oc1ccc(/C=N/Nc2nccnc2Cl)c(O)c1		inconclusive: 10 µM [inhibitor, partial curve, poor fit]
CCOc1ccc(CCNc2nc3c(c(=O)n(C)c(=O)n3C)n2CC)cc1OCC		inconclusive: 3.26 µM [inhibitor, partial curve, poor fit]
CCOC(=O)c1sc(NC(=O)CSc2ncccn2)nc1C		inconclusive: 10 µM [inhibitor, partial curve, poor fit]

By substructure: those above containing bromine
Structure (SMILES)	activity change, negative = inhibition	Potency
Cc1ccc(NC(=O)C2(S(=O)(=O)c3ccc(Cl)cc3)CC2)c(Br)c1		inconclusive: 11.2 µM [inhibitor, partial curve, poor fit]
N#C/C(=C\c1cn[nH]c1-c1ccccc1Br)C(=O)O		inconclusive: 2.24 µM [activator, full curve]
COC(=O)C1=C(C)N(C)C(C)=C(C(=O)OC)C1c1ccc(F)c(Br)c1		inconclusive: 7.08 µM [inhibitor, full curve, poor fit]

Following part.

Structure (SMILES)	activity change, negative = inhibition	Potency
O=C(Cn1cc([N+](=O)[O-])cn1)Nc1ccc(Cn2cc(Br)cn2)cc1		inconclusive: 12.6 µM [inhibitor, single point]
Cc1ccc(S(=O)(=O)N2CCC[C@H]2C(=O)OCC(=O)N2CCc3ccccc32)cc1		inconclusive: 0.1 µM [activator, partial curve, poor fit]
O=C(NC(CO)(CO)CO)c1coc(=O)c(Br)c1		inconclusive: 20.6 µM [inhibitor, single point]
CCN(CC)C(=O)Cn1cc(S(=O)(=O)CC(=O)Nc2ccc(F)cc2)c2ccccc21		inconclusive: 14.1 µM [activator, partial curve]
O=C(Nc1ccccc1)c1ccsc1	inactive: 16.1%	
COc1ccc(CCn2c(C)cc3c(c2=O)[C@H](c2ccc4c(c2)OCO4)C(C#N)=C(N)O3)cc1OC	inactive: -28.1%	
Cc1c(NC(=O)c2sc3c([N+](=O)[O-])cccc3c2Cl)cccc1-c1nc2ccccc2o1		inconclusive: 0.631 µM [activator, full curve, poor fit]
Cc1ccc(-c2c3c(=O)n(C)c(=O)n(C)c3c3c(C(F)(F)F)nc4ccccc4n23)cc1	inactive: 8.69% [at 46.1 µM]	
CCCN(Cc1nnc(-c2ccccc2Cl)o1)C(=O)c1oc2ccccc2c1C		inconclusive: 8.91 µM [inhibitor, partial curve, poor fit]
O=c1ccc(Oc2nc(N3CCCCC3)nc(N3CCCCC3)n2)n[nH]1	inactive: 2.57%	
COc1ccccc1N1CCN(C(=O)c2oc3ccc(Br)cc3c2C)CC1		inconclusive: 0.891 µM [inhibitor, full curve, poor fit]
COCC1CCN(Cc2cn(-c3ccccc3F)nc2-c2cc(C)sc2C)CC1		inconclusive: 11.2 µM [inhibitor, partial curve]
COc1ccccc1N1CCN(C(=O)c2oc3ccc(F)cc3c2C)CC1		inconclusive: 6.51 µM [inhibitor, partial curve, poor fit]
CCN1CCN(c2cc(C)c3cc(NC(=S)NCCN(C)C)ccc3n2)CC1		inconclusive: 2.51 µM [inhibitor, full curve, poor fit]
CC(C)N(Cc1cc2ccccc2[nH]c1=O)C(=O)c1ccco1	inactive: -3.19% [at 46.1 µM]	
COc1ccc(C(=O)N/N=C(\c2ccccc2)c2ccccn2)cc1		active: 9.2 µM
Cc1cc(O)cc2c1C(=O)/C(=C/c1ccco1)O2		inconclusive: 3.16 µM [activator, partial curve, poor fit]
COc1ccc(C(C#N)N2CCCCCC2)cc1OC (configuration not stated)	inconclusive: 5.99% [activator] [at 46.1 µM]	
Cc1ccc(S(=O)(=O)N/N=C/c2cc([N+](=O)[O-])ccc2O)cc1[N+](=O)[O-]		inconclusive: 3.55 µM [inhibitor, single point]
CC(C)(C)Nc1nc(SCC(=O)Nc2ccccc2)nc(N2CCOCC2)n1		inconclusive: 8.91 µM [inhibitor, partial curve, poor fit]
Cc1noc(NS(=O)(=O)c2ccc(NC(=O)c3ccc(OC(C)C)cc3)cc2)c1C		inconclusive: 3.16 µM [inhibitor, partial curve, poor fit]
